Laboratory results as given in the supplement of paper PMC10849652.
The other results are listed elsewhere or left out.

Amino acid sequences for entries named in this document (tags omitted). A change or cut given only in a name is not applied to a line headed by its entry.
UniProt O43715: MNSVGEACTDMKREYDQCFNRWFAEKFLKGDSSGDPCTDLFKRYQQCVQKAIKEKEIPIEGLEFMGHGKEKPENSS
UniProt O94826, whole entry, looked up: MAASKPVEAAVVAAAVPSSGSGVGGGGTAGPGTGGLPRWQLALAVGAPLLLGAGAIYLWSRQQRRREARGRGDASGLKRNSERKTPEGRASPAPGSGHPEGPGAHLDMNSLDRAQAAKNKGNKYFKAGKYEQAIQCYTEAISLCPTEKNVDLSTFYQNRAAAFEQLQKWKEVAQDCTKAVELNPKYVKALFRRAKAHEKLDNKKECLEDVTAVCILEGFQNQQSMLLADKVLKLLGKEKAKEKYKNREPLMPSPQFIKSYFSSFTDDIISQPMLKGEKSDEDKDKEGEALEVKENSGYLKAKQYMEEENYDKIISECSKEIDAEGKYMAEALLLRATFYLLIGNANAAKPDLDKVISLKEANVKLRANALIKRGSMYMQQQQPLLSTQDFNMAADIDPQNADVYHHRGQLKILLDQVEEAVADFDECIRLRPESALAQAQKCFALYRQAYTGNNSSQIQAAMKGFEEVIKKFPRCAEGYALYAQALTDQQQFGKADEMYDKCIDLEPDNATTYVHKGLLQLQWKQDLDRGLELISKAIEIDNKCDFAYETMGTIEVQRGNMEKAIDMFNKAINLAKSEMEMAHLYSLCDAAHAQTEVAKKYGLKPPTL
UniProt O96008: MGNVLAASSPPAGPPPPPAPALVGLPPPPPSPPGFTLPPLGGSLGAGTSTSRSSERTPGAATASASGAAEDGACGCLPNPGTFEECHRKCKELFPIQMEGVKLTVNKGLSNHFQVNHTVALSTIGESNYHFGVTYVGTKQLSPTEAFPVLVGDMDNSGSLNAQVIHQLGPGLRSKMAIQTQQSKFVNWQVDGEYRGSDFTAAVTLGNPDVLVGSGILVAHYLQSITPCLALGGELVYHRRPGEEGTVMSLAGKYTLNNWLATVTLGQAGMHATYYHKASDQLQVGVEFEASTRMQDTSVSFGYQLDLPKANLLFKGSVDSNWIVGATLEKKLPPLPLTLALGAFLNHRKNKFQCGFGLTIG
UniProt Q9NXH8: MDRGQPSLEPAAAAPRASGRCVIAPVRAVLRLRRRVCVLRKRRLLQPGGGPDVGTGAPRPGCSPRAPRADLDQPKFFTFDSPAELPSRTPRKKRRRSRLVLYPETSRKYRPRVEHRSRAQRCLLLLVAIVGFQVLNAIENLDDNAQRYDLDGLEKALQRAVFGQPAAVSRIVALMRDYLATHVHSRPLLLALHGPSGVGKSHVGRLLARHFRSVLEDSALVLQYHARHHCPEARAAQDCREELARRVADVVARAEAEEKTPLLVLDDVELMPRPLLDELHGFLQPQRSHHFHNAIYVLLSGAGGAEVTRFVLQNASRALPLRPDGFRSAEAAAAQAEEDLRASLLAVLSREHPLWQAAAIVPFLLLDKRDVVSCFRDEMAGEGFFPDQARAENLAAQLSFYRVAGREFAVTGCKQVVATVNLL
UniProt P11387: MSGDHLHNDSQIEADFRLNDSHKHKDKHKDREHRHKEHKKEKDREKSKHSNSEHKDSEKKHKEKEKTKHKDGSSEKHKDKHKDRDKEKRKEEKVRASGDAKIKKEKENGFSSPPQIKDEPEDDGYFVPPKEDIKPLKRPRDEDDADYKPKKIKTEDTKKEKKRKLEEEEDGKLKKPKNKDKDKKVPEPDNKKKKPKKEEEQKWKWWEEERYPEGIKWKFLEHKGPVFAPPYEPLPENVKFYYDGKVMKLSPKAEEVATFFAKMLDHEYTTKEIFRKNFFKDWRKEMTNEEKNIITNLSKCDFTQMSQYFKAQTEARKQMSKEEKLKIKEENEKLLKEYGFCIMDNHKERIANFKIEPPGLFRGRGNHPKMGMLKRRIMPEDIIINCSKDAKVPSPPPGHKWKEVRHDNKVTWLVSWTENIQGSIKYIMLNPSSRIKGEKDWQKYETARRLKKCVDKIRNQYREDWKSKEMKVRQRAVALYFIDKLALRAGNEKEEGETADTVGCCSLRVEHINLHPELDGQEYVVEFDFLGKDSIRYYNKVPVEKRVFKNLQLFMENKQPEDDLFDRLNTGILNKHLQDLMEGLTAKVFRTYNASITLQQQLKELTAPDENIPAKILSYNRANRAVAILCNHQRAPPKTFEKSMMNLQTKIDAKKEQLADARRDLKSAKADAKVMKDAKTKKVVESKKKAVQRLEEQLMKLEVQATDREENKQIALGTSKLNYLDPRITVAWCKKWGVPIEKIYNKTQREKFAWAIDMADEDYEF
UniProt Q9Y4A5, whole entry, looked up: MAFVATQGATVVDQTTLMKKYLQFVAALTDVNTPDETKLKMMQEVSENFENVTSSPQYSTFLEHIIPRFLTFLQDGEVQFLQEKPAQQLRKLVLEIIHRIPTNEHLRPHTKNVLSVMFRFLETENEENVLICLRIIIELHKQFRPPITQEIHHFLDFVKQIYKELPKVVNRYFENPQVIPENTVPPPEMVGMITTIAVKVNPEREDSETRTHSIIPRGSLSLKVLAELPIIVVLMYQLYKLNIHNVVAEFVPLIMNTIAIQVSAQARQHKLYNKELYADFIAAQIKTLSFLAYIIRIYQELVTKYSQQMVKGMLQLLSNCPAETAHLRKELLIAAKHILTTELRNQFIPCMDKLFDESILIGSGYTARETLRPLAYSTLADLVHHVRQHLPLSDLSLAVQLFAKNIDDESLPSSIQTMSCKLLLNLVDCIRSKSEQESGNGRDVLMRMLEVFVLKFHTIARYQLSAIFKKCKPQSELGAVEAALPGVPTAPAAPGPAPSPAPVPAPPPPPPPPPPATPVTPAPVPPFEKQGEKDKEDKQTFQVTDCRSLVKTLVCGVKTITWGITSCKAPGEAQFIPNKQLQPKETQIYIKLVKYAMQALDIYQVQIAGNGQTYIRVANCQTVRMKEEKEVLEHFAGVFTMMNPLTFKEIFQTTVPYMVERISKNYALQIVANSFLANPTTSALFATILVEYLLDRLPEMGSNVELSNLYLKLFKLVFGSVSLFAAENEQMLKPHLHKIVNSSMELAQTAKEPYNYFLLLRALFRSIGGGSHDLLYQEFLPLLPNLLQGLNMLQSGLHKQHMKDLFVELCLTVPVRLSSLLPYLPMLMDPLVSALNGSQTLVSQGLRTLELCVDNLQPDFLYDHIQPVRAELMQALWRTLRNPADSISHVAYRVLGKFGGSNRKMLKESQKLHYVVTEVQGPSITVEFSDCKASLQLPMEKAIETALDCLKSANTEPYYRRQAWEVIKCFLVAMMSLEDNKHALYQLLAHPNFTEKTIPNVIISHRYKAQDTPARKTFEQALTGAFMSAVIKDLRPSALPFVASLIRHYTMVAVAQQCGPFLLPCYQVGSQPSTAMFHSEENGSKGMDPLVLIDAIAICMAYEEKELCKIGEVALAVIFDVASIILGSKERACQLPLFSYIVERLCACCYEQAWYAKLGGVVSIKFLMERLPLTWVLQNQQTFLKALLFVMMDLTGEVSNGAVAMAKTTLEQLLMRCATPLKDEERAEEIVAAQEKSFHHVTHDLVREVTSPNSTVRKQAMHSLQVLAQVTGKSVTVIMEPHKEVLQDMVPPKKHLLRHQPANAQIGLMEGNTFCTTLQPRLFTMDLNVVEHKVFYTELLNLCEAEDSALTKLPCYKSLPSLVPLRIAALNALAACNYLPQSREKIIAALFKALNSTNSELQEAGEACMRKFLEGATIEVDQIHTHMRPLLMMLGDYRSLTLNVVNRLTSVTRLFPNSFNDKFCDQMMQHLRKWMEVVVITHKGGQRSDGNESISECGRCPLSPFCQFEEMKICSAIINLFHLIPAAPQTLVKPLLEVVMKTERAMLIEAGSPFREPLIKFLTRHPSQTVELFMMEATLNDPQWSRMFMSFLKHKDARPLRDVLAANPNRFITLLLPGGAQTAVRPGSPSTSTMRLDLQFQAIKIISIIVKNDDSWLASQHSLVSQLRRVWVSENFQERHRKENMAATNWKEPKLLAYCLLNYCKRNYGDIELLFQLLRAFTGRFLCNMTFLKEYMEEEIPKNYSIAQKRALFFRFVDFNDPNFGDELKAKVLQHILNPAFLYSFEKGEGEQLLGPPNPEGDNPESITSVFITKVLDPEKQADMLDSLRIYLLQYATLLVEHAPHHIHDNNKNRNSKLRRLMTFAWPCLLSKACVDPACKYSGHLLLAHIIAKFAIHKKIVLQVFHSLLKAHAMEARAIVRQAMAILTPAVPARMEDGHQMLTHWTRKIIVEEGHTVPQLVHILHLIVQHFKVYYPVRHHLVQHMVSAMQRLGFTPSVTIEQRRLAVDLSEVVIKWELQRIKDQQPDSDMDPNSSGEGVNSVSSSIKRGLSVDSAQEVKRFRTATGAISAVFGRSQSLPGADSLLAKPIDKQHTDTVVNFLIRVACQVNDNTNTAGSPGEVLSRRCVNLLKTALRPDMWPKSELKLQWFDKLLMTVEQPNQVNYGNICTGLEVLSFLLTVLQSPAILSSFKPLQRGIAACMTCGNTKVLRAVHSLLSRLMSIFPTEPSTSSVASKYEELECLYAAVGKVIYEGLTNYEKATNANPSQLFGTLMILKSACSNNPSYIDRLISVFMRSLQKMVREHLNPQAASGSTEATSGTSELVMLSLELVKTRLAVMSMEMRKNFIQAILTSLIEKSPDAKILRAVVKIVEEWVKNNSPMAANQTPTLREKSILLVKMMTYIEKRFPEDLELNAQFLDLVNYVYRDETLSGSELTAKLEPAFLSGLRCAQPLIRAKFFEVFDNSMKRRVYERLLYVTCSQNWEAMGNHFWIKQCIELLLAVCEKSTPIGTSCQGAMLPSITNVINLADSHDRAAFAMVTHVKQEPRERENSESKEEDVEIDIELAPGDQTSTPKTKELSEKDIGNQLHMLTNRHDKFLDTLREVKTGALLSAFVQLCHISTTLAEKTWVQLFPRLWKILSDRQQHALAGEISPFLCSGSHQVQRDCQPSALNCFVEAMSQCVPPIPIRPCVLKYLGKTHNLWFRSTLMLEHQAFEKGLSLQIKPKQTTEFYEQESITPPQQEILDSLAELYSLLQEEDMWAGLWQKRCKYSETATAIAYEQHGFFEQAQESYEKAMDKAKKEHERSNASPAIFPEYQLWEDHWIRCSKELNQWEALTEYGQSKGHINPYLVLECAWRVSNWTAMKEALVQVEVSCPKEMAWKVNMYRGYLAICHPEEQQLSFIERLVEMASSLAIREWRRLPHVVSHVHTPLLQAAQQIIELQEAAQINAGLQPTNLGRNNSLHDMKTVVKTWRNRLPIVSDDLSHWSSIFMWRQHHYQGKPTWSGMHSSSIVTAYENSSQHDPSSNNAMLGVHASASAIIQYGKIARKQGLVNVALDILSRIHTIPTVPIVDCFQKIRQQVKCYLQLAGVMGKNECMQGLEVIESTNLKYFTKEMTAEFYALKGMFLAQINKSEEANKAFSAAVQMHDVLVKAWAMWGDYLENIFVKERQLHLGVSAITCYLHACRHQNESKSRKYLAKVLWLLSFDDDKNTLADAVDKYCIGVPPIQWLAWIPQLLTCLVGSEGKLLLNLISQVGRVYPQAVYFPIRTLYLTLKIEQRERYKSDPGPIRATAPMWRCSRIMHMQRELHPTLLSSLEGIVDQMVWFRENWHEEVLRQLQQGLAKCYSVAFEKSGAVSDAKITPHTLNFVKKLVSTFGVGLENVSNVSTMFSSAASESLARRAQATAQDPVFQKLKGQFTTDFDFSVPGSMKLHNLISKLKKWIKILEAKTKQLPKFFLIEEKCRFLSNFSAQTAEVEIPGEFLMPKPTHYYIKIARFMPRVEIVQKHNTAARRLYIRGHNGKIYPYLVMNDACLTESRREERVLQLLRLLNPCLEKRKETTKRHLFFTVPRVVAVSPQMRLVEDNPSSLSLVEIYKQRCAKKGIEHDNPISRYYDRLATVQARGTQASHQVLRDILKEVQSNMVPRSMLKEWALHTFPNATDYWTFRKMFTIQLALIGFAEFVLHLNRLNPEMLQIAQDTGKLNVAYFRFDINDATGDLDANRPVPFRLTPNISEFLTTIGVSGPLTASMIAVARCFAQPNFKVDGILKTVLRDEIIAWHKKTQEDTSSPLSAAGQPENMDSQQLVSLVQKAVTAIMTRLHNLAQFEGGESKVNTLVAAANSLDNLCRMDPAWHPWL
UniProt Q8NFQ8: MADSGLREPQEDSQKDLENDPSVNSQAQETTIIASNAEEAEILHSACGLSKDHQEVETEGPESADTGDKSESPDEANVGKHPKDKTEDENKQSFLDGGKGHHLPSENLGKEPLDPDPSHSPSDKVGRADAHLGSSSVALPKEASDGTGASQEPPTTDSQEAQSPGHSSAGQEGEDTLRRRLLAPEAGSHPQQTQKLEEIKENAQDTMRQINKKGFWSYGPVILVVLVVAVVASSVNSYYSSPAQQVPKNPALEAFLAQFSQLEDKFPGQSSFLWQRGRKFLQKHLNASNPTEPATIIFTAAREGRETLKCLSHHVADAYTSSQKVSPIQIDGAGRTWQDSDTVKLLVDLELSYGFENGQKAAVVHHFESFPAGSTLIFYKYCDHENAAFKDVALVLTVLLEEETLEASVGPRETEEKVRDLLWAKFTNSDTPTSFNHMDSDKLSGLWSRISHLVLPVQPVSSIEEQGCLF

These targets were tested with CC(C)(C)Cn1c(N)nc2ccc(-c3[nH]c(C(C)(C)C)nc3-c3ccc(F)cc3)nc21 [ralimetinib] (assay: log2 fold change, soluble protein after heating vs DMSO (PISA); higher = thermal stabilisation; K562 cells, 10 uM, 30 min; active = over 0.2 and 3.5 SD of the protein, either way, in both replicates (recomputed)).
In short: (§1)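 K562 cells at 2×10^6 cells/mL were given 10 μM compound for 30 min. Aliquots then went through 3 min of heating across 48°C-58°C, were pooled, and were extracted in PBS with 0.5% NP-40 at 4°C, and the supernatant after 21,000xg for 90 min was quantified by TMTpro 16plex LC-MS/MS with channel sums equalised. Thermal stability relative to control samples, from duplicates, is given as log2 fold change.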

log2 fold change, inactive:
TRIM25 (UniProt Q14258) 0.196
TOMM34 (UniProt Q15785) 0.061
TRIP11 (UniProt Q15643) 0.033
TRIM24 (UniProt O15164) -0.024
TPP2 (UniProt P29144) 0.163
TSEN34 (UniProt Q9BSV6) 0.022
TRIAP1 (UniProt O43715) -0.017
TP53RK (UniProt Q96S44) -0.053
TRIP13 (UniProt Q15645) -0.027
TRIO (UniProt O75962) -0.205
TSC22D2 (UniProt O75157) -0.051
TRAPPC10 (UniProt P48553) 0.053
TRMT112 (UniProt Q9UI30) -0.056
TOMM70 (UniProt O94826) -0.005
TOMM40 (UniProt O96008) -0.022
TOP2B (UniProt Q02880) 0.274
TNIK isoform 6 (UniProt Q9UKE5) -0.033
TOR4A (UniProt Q9NXH8) 0.176
TOP1 (UniProt P11387) 0.25
TPM4, A0A2R8Y5V9 -0.007
TRAF6 (UniProt Q9Y4K3) -0.039
TRRAP (UniProt Q9Y4A5) -0.015
TOP3B (UniProt O95985) 0.15
TNFRSF1B (UniProt P20333) -0.028
TPT1 (UniProt P13693) -0.016
TRMT61B (UniProt Q9BVS5) 0.078
TOLLIP (UniProt Q9H0E2) 0.045
TOR1AIP2 (UniProt Q8NFQ8) -0.017
TPM3 isoform 4 (UniProt P06753) -0.096
TOR3A (UniProt Q9H497) -0.058
TOMM22 (UniProt Q9NS69) -0.097
TSC22D4 (UniProt Q9Y3Q8) -0.024
TSEN15 (UniProt Q8WW01) -0.101

These targets were tested with CC(C)(O)CC(=O)NCCn1ccc2ncnc(Nc3ccc(Oc4cccc(C(F)(F)F)c4)c(Cl)c3)c21 in the same assay as above.
In short: as §1

log2 fold change, inactive:
TRIM25 (UniProt Q14258) 0.027
TOMM34 (UniProt Q15785) -0.098
TRIP11 (UniProt Q15643) 0.018
TRIM24 (UniProt O15164) 0.05
TPP2 (UniProt P29144) 0.026
TSEN34 (UniProt Q9BSV6) -0.041
TRIAP1 (UniProt O43715) -0.039
TP53RK (UniProt Q96S44) 0.002
TRIP13 (UniProt Q15645) -0.008
TRIO (UniProt O75962) -0.149
TSC22D2 (UniProt O75157) 0.007
TRAPPC10 (UniProt P48553) 0.044
TRMT112 (UniProt Q9UI30) -0.137
TOMM70 (UniProt O94826) -0.008
TOMM40 (UniProt O96008) -0.028
TOP2B (UniProt Q02880) -0.001
TNIK isoform 6 (UniProt Q9UKE5) -0.01
TOR4A (UniProt Q9NXH8) 0.018
TOP1 (UniProt P11387) 0.009
TPM4, A0A2R8Y5V9 0.052
TRAF6 (UniProt Q9Y4K3) -0.033
TRRAP (UniProt Q9Y4A5) -0.011
TOP3B (UniProt O95985) 0.009
TNFRSF1B (UniProt P20333) -0.029
TPT1 (UniProt P13693) -0.046
TRMT61B (UniProt Q9BVS5) 0.025
TOLLIP (UniProt Q9H0E2) -0.064
TOR1AIP2 (UniProt Q8NFQ8) 0.01
TPM3 isoform 4 (UniProt P06753) 0.048
TOR3A (UniProt Q9H497) -0.074
TOMM22 (UniProt Q9NS69) -0.058
TSC22D4 (UniProt Q9Y3Q8) 0.003
TSEN15 (UniProt Q8WW01) -0.068

Each target was assayed with CC(C)C1=C2N=C(C=C(N2N=C1)NCC3=CC=CC=C3)NCCCCCCN in the same assay as above.
In short: as §1

log2 fold change, inactive:
TRIM25 (UniProt Q14258) -0.007
TOMM34 (UniProt Q15785) -0.168
TRIP11 (UniProt Q15643) -0.187
TRIM24 (UniProt O15164) -0.125
TPP2 (UniProt P29144) -0.003
TSEN34 (UniProt Q9BSV6) 0.035
TRIAP1 (UniProt O43715) -0.015
TP53RK (UniProt Q96S44) 0.062
TRIP13 (UniProt Q15645) -0.032
TRIO (UniProt O75962) -0.16
TSC22D2 (UniProt O75157) 0.036
TRAPPC10 (UniProt P48553) -0.034
TRMT112 (UniProt Q9UI30) -0.007
TOMM70 (UniProt O94826) -0.005
TOMM40 (UniProt O96008) 0.037
TOP2B (UniProt Q02880) -0.14
TNIK isoform 6 (UniProt Q9UKE5) 0.017
TOR4A (UniProt Q9NXH8) -0.114
TOP1 (UniProt P11387) -0.179
TPM4, A0A2R8Y5V9 0.057
TRAF6 (UniProt Q9Y4K3) 0.093
TRRAP (UniProt Q9Y4A5) 0.036
TOP3B (UniProt O95985) -0.119
TNFRSF1B (UniProt P20333) 0.193
TPT1 (UniProt P13693) 0.006
TRMT61B (UniProt Q9BVS5) 0.025
TOLLIP (UniProt Q9H0E2) -0.084
TOR1AIP2 (UniProt Q8NFQ8) 0.005
TPM3 isoform 4 (UniProt P06753) 0.015
TOR3A (UniProt Q9H497) -0.063
TOMM22 (UniProt Q9NS69) -0.021
TSC22D4 (UniProt Q9Y3Q8) 0.062
TSEN15 (UniProt Q8WW01) -0.062
